The values that follow come from US20240115603A1 (Zymeworks, published 2024).

Amino acid sequences for entries named in this document (tags omitted). A change or cut given only in a name is not applied to a line headed by its entry.
UniProt Q99062: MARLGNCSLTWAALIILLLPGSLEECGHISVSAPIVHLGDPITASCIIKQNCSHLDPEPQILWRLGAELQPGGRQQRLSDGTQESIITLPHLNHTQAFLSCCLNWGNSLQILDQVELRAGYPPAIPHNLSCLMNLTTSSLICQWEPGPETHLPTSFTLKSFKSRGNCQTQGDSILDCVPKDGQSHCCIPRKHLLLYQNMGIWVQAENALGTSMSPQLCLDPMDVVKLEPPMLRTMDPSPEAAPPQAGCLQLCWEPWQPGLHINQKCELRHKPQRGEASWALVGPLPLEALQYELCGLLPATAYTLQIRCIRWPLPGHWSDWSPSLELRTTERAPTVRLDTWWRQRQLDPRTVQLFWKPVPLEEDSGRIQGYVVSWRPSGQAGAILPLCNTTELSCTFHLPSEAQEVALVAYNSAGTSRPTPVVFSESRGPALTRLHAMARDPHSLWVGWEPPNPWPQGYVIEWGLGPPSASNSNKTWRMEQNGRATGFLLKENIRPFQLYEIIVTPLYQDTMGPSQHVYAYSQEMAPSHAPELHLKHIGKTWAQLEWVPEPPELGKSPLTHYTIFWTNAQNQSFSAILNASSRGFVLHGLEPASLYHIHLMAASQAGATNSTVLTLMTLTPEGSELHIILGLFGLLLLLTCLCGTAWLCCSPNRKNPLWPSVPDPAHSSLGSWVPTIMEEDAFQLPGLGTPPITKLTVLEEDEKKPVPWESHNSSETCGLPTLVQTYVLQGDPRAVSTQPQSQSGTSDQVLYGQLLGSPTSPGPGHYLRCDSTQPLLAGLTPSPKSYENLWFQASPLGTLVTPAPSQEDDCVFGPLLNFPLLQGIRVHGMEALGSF

The target of experiment [1] is T1, WT G-CSFR(Ig-CRH) with N-terminal His tag (human, UniProt Q99062 25-331).
T1 construct: also called WT receptor
T1 chain: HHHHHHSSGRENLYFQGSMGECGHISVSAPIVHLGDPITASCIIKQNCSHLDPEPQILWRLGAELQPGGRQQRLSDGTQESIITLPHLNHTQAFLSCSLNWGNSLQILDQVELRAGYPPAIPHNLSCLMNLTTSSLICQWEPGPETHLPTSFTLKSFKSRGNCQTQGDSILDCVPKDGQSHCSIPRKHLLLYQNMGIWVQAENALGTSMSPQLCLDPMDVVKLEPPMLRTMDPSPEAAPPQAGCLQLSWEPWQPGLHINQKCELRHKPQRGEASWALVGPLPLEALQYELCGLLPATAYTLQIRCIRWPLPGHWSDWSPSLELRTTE
The experiment can be described thus: co-expression in Tni insect cells, pulldown via Twin Strep tag on G-CSF, SDS-PAGE.

Experiment [2] deals with T2, WT G-CSFR(CRH) with N-terminal His tag (human, UniProt Q99062 120-331).
T2 construct: also called G-CSFR(CRH)WT; WT receptor
T2 chain: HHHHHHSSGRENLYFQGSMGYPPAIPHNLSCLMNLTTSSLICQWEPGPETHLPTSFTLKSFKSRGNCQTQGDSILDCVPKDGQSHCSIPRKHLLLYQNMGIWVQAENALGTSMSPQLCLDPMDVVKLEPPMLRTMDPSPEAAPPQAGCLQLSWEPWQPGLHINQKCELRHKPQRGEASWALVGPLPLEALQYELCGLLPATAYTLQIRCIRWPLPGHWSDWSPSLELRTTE
Described as above.

B1: G-CSFE combination design 401 with C-terminal Twin Strep tag (ligand)
chain: TPLGPASSLPQSFLLKCLKQVRKIQGDGAALQEKLCATYKLCHPERLVLLGHSLGIPWAPLSSCPSQALQLAGCLSQLHSGLFLYQGLLQALEGISPELGPTLDTLQKDVARFATTIWQQMEELGMAPALQPTQGAMPAFASAFQRRAGGVLVASHLQSFLEVSYRVLRHLAQAAAENLYFQGSAWSHPQFEKGGGSGGGSGGSAWSHPQFEK
notes: also called design 401 cytokine
Take B1: the binding result in experiment [1] is listed as “no binding”.

B2: G-CSFE site II design 34 with C-terminal Twin Strep tag (ligand)
chain: TPLGPASSLPQSFLLKCLEQVRKIQGDGAALQEKLCATYKLCHPEELVLLGHSLGIPWAPLSSCPSQALQLAGCLSQLHSGLFLYQGLLQALEGISPELGPTLDTLQKDVARFATTIWQQMRRLGMAPALQPTQGAMPAFASAFQRRAGGVLVASHLQSFLEVSYRVLRHLAQAAAENLYFQGSAWSHPQFEKGGGSGGGSGGSAWSHPQFEK
notes: also called design #34 G-CSFE
As for B2, in experiment [2], the binding result is on record as “no binding”.

B3: G-CSFE site II design 9 with C-terminal Twin Strep tag (ligand)
chain: TPLGPASSLPQSFLLKCLEQVRKIQGDGAALQEKLCATYKLCHPEELVLLGHSLGIPWAPLSSCPSQALQLAGCLSQLHSGLFLYQGLLQALEGISPELGPTLRTLQKDVARFATTIWRQMKELGMAPALQPTQGAMPAFASAFQRRAGGVLVASHLQSFLEVSYRVLRHLAQAAAENLYFQGSAWSHPQFEKGGGSGGGSGGSAWSHPQFEK
notes: also called design #9 G-CSFE
Turning to B3, the binding result in experiment [2] is “no binding”.

B4: G-CSFE combination design 402 with C-terminal Twin Strep tag (ligand)
chain: TPLGPASSLPQSFLLKCLKQVRKIQGDGAALQEKLCATYKLCHPERLVLLGHSLGIPWAPLSSCPSQALQLAGCLSQLHSGLFLYQGLLQALEGISPELGPTLDTLQLDVAKFAKTIWQQMEELGMAPALQPTQGAMPAFASAFQRRAGGVLVASHLQSFLEVSYRVLRHLAQAAAENLYFQGSAWSHPQFEKGGGSGGGSGGSAWSHPQFEK
notes: also called design 402 cytokine
B4: the binding result in experiment [1] is on record as “no binding”.

B5: G-CSFE site II design 15 with C-terminal Twin Strep tag (ligand)
chain: TPLGPASSLPQSFLLDCLEQVRKIQGDGAALQEKLCATYKLCHPEELVLLGHSLGIPWAPLSSCPSQALQLAGCLSQLHSGLFLYQGLLQALEGISPELGPTLDTLQLDVADFAEDIWEQMEELGMAPALQPTQGAMPAFASAFQRRAGGVLVASHLQSFLEVSYRVLRHLAQAAAENLYFQGSAWSHPQFEKGGGSGGGSGGSAWSHPQFEK
notes: also called design #15 G-CSFE
Consider B5, for which the binding result in experiment [2] is “no binding”.

B6: G-CSFE site II design 8 with C-terminal Twin Strep tag (ligand)
chain: TPLGPASSLPQRFLLKCFEQVRKIQGDGAALQEKLCATYKLCHPEELVLLGHSLGIPWAPLSSCPSQALQLAGCLSQLHSGLFLYQGLLQALEGISPELGPTLRTLQKDVARFATTIWQQMEELGMAPALQPTQGAMPAFASAFQRRAGGVLVASHLQSFLEVSYRVLRHLAQAAAENLYFQGSAWSHPQFEKGGGSGGGSGGSAWSHPQFEK
notes: also called design #8 G-CSFE
B6: the binding result in experiment [2] is listed as “no binding”.
